According to PMC7547098:
These are yes or no findings as the source states them, for the method shown. In cells and extracts the contact can be indirect. A result given as binding can be weak or reduced; the word gives no strength.

Chains of the proteins cited; added tags and fusions are not shown. Lines headed by an entry give the natural chain unless they say otherwise; changes in a name come on top.
UniProt P61957: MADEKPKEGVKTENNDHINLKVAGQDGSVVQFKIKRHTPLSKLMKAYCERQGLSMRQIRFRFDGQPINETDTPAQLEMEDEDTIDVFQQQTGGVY

Target: SUMO2, endogenous in mouse heart (mouse (endogenous in mouse heart)) (UniProt P61957)
Assay: co-IP; endogenous proteins, 1 mg mouse heart protein in RIPA buffer, about 4 ug anti-SUMO2/3 antibody (mouse monoclonal, Abcam), Dynabeads, 4 °C, blot with anti-HectD3

B1: HectD3, endogenous in mouse heart (protein, UniProt Q3U487 1-861)
chain: MAGPGPGAALESPRQLLGRVRFLAEAARSLRAGLPLPAALAFVPREVLYKLYKDPAGPSRVLLPVWEAEGLGLRVGAVGAAPGTGSGPLRAARDSIELRRGACVRTTGEELCNGHGLWVKLTKEQLAEHLSDCSLDEGWLLVCRPAEGGARLVPIDTPDHLQRQQQLFGVDYRPVLRWEQVVDLTYSHRLGSRPQPAEAYTEAIQRLLYVPPTWTYECDEDLIHFLYDHLGKEDENLGSVKQYVESIDVSSYTEEFNVSCLTDSNADTYWESDGSQCQHWVRLTMKKGTIVKKLLLTVDTTDDNFMPKRVVVYGGEGDNLKKLSDVNIDETLIGDVCVLEDMTVHLPIIEIRIVECRDDGIDVRLRGVKIKSSRQRELGLNADLFQPASLVRYPRLEGTDPEVLYRRAVLLQRFIKILDSVLHHLVPAWDHTLGTFSEIKQVKQFLLLSRQRPSLVAQCLRDSESSKPSFMPRLYINRRLAMEHRACPSRDPACKNAVFTQVYEGLKPSDKYEKPLDYRWPMRYDQWWECKFIAEGIIDQGGGFRDSLADMSEELCPSSADTPVPLPFFVRTANQGNGTGEARDMYVPNPSCRDFAKYEWIGQLMGAALRGKEFLVLALPGFVWKQLSGEEVSWSKDFPAVDSVLVKLLEVMEGVDKETFEFKFGKELTFTTVLSDQQVVELIPGGTGIVVEYEDRSRFIQLVRKARLEESKEQVAAMQAGLLKVVPQAVLDLLTWQELEKKVCGDPEVTVDALRKLTRFEDFEPSDTRVQYFWEALNNFTNEDRSRFLRFVTGRSRLPARIYIYPDKLGYETTDALPESSTCSSTLFLPHYASAKVCEEKLRYAAYNCVAIDTDMSPWEE
binding: binds
